Measured values: PMC7862700
The list shows a part of the results, in another mix than the full data. At the low end of the ranking the order means little.

Tests used:
Experiment in all cases: DAPPL (digital affinity profiling via proximity ligation, sequencing)
Conditions in all cases: 10 mM Tris-HCl pH 7.5, 50 mM NaCl, 1 mM DTT, 4% glycerol, room temperature, 30 min; GST-TFs on glutathione beads, 16-mer random dsDNA library, 0.1% …; high values mean tight binding; double strand, one strand shown; scale: fold enrichment (6-mer frequency, TF over GST control)
ELK1 = molecular target: T1, ELK1 (UniProt P19419)
T1 sequence: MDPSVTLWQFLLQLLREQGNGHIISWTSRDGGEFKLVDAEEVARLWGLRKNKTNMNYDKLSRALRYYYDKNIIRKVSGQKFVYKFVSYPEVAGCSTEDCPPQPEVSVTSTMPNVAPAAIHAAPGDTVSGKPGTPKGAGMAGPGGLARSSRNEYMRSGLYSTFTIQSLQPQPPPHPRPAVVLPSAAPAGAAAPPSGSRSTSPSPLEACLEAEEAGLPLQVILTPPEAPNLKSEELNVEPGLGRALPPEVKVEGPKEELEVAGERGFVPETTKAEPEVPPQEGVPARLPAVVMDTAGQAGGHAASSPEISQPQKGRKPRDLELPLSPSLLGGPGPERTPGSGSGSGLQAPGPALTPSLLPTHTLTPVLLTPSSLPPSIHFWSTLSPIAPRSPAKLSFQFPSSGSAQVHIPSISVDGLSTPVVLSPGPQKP

ELK3 = molecular target: T2, ELK3 (UniProt P41970)
T2 sequence: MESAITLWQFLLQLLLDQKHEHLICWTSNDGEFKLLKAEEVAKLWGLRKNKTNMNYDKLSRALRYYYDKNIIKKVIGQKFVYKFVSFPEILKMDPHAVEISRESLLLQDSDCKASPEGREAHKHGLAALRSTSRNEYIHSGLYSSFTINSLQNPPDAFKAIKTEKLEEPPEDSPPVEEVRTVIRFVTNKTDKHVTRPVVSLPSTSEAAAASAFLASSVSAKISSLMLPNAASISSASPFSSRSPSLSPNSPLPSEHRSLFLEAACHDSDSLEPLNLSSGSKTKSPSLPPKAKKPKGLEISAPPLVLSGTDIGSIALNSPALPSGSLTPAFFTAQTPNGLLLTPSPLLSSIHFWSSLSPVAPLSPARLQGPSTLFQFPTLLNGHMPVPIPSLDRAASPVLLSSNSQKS

SPIC = molecular target: T3, SPIC (UniProt Q8N5J4)
T3 sequence: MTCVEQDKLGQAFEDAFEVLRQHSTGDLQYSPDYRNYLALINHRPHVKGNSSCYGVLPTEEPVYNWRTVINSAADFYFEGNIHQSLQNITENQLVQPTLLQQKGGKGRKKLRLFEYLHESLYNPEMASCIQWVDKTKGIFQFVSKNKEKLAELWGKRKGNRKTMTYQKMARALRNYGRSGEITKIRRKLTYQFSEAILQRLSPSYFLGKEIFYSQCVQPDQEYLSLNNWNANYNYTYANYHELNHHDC

ETS2 = molecular target: T4, ETS2 (UniProt P15036)
T4 sequence: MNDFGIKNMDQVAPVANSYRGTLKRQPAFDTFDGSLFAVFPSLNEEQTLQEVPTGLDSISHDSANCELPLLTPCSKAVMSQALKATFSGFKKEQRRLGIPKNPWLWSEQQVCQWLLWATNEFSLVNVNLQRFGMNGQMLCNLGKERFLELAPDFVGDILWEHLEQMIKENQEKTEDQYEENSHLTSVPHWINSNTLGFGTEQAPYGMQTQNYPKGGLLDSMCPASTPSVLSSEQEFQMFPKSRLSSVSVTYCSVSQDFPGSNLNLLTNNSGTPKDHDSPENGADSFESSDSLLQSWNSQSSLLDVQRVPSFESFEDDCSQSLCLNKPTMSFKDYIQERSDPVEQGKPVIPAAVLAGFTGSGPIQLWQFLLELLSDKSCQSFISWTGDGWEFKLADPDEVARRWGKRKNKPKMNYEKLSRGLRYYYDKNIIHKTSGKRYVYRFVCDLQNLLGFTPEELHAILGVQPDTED

ETV3 = molecular target: T5, ETV3 (UniProt P41162-2)
T5 sequence: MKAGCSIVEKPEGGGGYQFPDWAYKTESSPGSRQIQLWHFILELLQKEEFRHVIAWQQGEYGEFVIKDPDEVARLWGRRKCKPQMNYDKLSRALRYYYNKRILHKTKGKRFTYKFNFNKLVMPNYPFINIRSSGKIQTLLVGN

Row | Sequence | binding signal (ELK1) | binding signal (ELK3) | binding signal (SPIC) | binding signal (ETS2) | binding signal (ETV3)
1 | GGTGAG | 0.384 | 0.38 | 0.362 | 0.383 | 0.361
2 | AGGCGC | 0.546 | 0.564 | 0.605 | 0.575 | 0.522
3 | CGCCAG | 0.632 | 0.674 | 0.63 | 0.623 | 0.639
4 | GAGCCC | 0.644 | 0.787 | 0.76 | 0.708 | 0.765
5 | GTTAGG | 0.825 | 0.791 | 0.71 | 0.834 | 0.744
6 | TAGGAG | 0.384 | 0.432 | 0.382 | 0.395 | 0.425
7 | GCCAAA | 0.87 | 0.84 | 0.98 | 0.94 | 0.872
8 | CAAGGA | 0.769 | 0.77 | 0.749 | 0.751 | 0.769
9 | GTGAGG | 0.284 | 0.266 | 0.243 | 0.263 | 0.258
10 | GGGGGA | 0.598 | 0.599 | 0.58 | 0.561 | 0.554
11 | GACTAA | 0.924 | 0.946 | 0.911 | 0.912 | 0.864
12 | AAGCCA | 0.861 | 0.878 | 0.869 | 0.868 | 0.824
13 | ACTAGT | 0.895 | 0.933 | 0.706 | 0.891 | 0.836
14 | CATGTC | 0.78 | 0.749 | 0.792 | 0.835 | 0.841
15 | TGTGTG | 0.85 | 0.864 | 0.737 | 0.905 | 0.906
16 | AGGCTG | 0.661 | 0.642 | 0.644 | 0.695 | 0.64
17 | GAAGAC | 0.835 | 0.915 | 0.81 | 0.903 | 0.913
18 | AGACAC | 0.813 | 0.804 | 0.716 | 0.808 | 0.777
19 | AGAGCC | 0.67 | 0.776 | 0.723 | 0.65 | 0.724
20 | ATGTCG | 0.643 | 0.57 | 0.641 | 0.616 | 0.656
21 | ACACAG | 0.933 | 0.945 | 0.896 | 0.979 | 0.953
22 | CGGGAT | 0.635 | 0.721 | 0.65 | 0.63 | 0.624
23 | GATCCG | 1.01 | 0.968 | 0.96 | 0.958 | 0.997
24 | ACGGGT | 0.893 | 0.867 | 0.837 | 0.882 | 0.893
25 | GTCAAT | 0.802 | 0.712 | 0.734 | 0.814 | 0.86

2 records picked at random from the list so far:
Row | Sequence | binding signal (ELK1) | binding signal (ELK3) | binding signal (SPIC) | binding signal (ETS2) | binding signal (ETV3)
19 | AGAGCC | 0.67 | 0.776 | 0.723 | 0.65 | 0.724
15 | TGTGTG | 0.85 | 0.864 | 0.737 | 0.905 | 0.906
